Consider one molecule from article PMC4993455.

Protein sequences, listed by entry. Tags and fused reporters are not part of them. Lines headed by an entry give the natural chain unless they say otherwise; changes in a name come on top. Chains listed by the source or under a name are the forms on record and can include a tag or linker.
GST-PDRG1 (Q642A0, form named): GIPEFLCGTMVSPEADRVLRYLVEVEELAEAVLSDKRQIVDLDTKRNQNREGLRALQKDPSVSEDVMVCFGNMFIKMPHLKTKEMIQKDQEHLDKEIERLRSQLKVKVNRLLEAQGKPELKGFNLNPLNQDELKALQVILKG

The target in assay [1] is GST-PDRG1 (rat) (UniProt Q642A0). Nature of the assay: pull-down; Glutathione-Sepharose loaded with GST-PDRG1 and washed; incubated 1 hour at 4°C with the pre-formed hetero-oligomer MAT II (MATα2 + MATβ, purified, 100 μg) plus excess GST extract; blots with anti-MATα2 and anti-MATβ; both purified.
Assay [2] has the same target. The assay can be described thus: pull-down; Glutathione-Sepharose loaded with GST-PDRG1 or truncated forms and washed; incubated 1 hour at 4°C with recombinant MATα2 or MATβ alone (purified, 100 μg; extracts also named in the methods) plus excess GST extract; blots with anti-MATα2 and anti-MATβ; both purified.

Results are given in words; binding and its absence hold for the method and conditions named.

B1: recombinant human methionine adenosyltransferase regulatory β-subunit (MATβ) (protein, UniProt Q9NZL9 1-334)
chain: MVGREKELSIHFVPGSCRLVEEEVNIPNRRVLVTGATGLLGRAVHKEFQQNNWHAVGCGFRRARPKFEQVNLLDSNAVHHIIHDFQPHVIVHCAAERRPDVVENQPDAASQLNVDASGNLAKEAAAVGAFLIYISSDYVFDGTNPPYREEDIPAPLNLYGKTKLDGEKAVLENNLGAAVLRIPILYGEVEKLEESAVTVMFDKVQFSNKSANMDHWQQRFPTHVKDVATVCRQLAEKRMLDPSIKGTFHWSGNEQMTKYEMACAIADAFNLPSSHLRPITDSPVLGAQRPRNAQLDCSKLETLGIGQRTPFRIGIKESLWPFLIDKRWRQTVFH
As for B1, the binding entry with GST-PDRG1 (rat) [1] and in the assay with GST-PDRG1 (rat) [2] was “no binding” in each case.
